Patent EP4806918A1
Changes are numbered by the printed parent chain. These are yes or no findings as the source states them, for the method shown. Some results given as binding are weak or reduced against the parent protein; the word gives no strength.

Chains of the proteins cited; added tags and fusions are not shown. Lines headed by an entry give the natural chain unless they say otherwise; changes in a name come on top. A line that says so, or that is headed by a name, gives the form on record, which may keep a tag or linker.
UniProt Q9NZQ7: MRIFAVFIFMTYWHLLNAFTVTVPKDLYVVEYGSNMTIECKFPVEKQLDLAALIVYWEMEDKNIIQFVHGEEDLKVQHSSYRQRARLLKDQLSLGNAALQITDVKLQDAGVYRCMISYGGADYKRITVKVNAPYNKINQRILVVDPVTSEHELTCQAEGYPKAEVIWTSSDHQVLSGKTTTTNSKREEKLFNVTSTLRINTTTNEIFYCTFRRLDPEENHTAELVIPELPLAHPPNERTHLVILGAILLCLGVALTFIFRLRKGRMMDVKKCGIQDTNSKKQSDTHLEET
cynomolgus monkey PD-L1 on a stable cell line (Probio, M00573) (G7PSE7, form named): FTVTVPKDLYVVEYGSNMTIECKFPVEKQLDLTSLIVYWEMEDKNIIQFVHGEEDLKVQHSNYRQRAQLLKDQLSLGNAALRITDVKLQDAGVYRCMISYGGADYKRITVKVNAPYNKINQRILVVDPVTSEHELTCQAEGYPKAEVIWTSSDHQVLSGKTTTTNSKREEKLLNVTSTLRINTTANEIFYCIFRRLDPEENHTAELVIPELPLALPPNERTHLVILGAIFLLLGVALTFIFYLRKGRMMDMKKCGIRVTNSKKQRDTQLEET

How the values were obtained:
[1] = biological target: recombinant human PD-L1-His protein (GenScript, Z03425) (human) (UniProt Q9NZQ7); test: SPR, Biacore 8K, antibody Fc-captured, human PD-L1-His as analyte
[2] = biological target: recombinant human PD-L1-His protein (GenScript, Z03425) (human) (UniProt Q9NZQ7); test: indirect ELISA, plate coated with recombinant human PD-L1-His
[3] = biological target: cynomolgus monkey PD-L1 on a stable cell line (Probio, M00573) (cynomolgus monkey) (UniProt G7PSE7); test: FACS on stable cell line expressing cynomolgus monkey PD-L1

Measured: binding

B1: AHP30019 fully human antibody (antibody, IgG1, V domains shown, not shown: a dimerising Fc or GST)
VH: QVQLVQSGGGLVQPGGSLRLSCAGSGSSFSLAVMGWYRQAPGRQRELVGIISSAAGTNYADSVKGRFTISRDDAKNTLYLQMNSLTAEDTAVYYCWRGAVPGDPYGRWGQGTLVTVSS
VL: EIVLTQSPLSLPVTLGQPASISCRSSQSLVHSDGNTYLNWFQQRPGQPPRRLIYEVSNRDSGVPDRFSGSGSGTDFTLKISRVEAEDVGVYYCMQGTHWPWTFGQGTKVEIK
binds: all assays above

B2: AHP31319 fully human antibody (antibody, IgG1, V domains shown, not shown: a dimerising Fc or GST)
VH: B1 VH with Q1E, L113T
VL: EIVMTQSPGTLSLSPGEGATLSCRASQSVSNNYLAWYQQKHGQAPRLLIYGASSRATGIPDRFSGSGSGTDFTLTINRLEPEDFALYYCQQYGNSPGTFGQGTKVDIK
binds: all assays above
